The text below walks through data of the supplement of paper PMC7666118.

By UniProt entry, the sequences of proteins in these tests, tags left out. Where a name states a change or a piece, a line headed by the entry shows the natural chain unless it says otherwise.
UniProt O43829: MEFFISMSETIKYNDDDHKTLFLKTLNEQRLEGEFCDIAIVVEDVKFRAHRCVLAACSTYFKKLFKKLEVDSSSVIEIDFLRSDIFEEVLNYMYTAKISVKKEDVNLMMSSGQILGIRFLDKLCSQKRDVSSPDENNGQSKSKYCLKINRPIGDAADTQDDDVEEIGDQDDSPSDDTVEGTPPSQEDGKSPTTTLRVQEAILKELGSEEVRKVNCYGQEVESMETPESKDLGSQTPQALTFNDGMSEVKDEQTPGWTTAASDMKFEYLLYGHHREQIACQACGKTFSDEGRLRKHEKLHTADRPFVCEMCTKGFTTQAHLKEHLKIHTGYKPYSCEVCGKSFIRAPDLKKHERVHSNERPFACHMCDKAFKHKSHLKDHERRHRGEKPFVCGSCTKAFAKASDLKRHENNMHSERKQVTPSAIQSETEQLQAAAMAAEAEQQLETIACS
UniProt Q9NQZ2: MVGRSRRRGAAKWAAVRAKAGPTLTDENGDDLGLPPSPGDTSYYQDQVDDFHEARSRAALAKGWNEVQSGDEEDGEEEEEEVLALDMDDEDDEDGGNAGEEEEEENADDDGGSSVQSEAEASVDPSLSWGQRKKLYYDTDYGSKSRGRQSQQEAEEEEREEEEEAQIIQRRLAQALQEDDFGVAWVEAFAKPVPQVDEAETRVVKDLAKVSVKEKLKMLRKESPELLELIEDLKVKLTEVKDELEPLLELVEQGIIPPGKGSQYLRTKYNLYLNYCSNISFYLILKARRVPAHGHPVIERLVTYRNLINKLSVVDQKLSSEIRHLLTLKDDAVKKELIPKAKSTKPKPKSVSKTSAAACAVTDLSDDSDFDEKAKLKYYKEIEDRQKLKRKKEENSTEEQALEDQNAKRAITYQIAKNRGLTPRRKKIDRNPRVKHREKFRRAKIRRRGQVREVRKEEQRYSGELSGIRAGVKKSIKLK
UniProt P62256: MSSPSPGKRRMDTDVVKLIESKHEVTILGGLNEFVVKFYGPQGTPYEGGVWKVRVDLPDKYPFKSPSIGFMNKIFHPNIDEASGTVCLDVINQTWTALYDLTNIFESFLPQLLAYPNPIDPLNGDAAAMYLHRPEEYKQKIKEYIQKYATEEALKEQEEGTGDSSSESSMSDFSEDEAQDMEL
UniProt P63146, whole entry: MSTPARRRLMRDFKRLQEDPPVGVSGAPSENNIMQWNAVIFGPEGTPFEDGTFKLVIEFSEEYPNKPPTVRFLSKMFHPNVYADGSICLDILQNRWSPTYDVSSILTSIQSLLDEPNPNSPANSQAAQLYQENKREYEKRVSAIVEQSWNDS
UniProt Q8IZ13: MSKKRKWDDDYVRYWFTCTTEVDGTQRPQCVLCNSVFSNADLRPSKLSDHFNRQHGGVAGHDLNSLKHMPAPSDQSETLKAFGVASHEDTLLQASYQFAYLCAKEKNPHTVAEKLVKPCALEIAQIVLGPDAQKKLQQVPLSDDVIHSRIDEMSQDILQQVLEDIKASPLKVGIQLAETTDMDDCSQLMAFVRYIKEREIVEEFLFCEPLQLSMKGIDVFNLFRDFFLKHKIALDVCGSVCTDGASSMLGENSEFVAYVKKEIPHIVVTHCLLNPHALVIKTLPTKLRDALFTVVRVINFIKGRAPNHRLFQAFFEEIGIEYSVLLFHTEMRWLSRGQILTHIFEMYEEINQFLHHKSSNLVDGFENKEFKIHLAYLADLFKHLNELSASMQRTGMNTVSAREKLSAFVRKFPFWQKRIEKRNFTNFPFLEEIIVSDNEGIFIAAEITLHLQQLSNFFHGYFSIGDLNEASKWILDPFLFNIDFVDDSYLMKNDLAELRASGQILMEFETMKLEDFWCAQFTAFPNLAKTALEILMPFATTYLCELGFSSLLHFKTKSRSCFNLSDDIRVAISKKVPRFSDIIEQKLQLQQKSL
UniProt Q8N5P1: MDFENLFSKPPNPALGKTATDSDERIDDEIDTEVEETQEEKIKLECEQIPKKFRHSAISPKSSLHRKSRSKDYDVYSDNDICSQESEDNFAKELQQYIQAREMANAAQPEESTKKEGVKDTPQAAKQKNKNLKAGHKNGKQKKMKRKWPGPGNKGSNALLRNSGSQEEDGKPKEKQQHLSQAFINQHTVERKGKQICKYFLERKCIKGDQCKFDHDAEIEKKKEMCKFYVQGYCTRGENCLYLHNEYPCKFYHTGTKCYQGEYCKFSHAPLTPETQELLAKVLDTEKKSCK
UniProt Q5VIR6: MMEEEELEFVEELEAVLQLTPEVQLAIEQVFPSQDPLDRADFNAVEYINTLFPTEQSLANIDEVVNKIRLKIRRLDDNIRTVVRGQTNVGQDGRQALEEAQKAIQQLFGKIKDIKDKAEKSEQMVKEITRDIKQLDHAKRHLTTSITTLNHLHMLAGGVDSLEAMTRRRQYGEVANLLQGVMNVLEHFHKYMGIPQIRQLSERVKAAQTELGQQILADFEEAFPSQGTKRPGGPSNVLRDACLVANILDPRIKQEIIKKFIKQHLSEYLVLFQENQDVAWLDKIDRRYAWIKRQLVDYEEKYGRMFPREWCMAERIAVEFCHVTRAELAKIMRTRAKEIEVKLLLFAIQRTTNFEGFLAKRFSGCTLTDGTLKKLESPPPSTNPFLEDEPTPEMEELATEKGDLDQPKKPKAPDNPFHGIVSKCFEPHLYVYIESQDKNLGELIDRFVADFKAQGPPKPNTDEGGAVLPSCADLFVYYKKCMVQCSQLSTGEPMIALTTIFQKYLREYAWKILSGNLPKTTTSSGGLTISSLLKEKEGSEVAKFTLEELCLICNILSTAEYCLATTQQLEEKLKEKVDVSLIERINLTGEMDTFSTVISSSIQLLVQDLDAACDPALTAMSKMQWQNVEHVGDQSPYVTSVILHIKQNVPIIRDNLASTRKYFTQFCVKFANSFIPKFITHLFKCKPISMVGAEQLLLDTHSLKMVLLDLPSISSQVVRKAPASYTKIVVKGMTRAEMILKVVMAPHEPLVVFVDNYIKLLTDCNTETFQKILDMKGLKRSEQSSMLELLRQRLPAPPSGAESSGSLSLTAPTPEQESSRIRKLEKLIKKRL
UniProt Q92900: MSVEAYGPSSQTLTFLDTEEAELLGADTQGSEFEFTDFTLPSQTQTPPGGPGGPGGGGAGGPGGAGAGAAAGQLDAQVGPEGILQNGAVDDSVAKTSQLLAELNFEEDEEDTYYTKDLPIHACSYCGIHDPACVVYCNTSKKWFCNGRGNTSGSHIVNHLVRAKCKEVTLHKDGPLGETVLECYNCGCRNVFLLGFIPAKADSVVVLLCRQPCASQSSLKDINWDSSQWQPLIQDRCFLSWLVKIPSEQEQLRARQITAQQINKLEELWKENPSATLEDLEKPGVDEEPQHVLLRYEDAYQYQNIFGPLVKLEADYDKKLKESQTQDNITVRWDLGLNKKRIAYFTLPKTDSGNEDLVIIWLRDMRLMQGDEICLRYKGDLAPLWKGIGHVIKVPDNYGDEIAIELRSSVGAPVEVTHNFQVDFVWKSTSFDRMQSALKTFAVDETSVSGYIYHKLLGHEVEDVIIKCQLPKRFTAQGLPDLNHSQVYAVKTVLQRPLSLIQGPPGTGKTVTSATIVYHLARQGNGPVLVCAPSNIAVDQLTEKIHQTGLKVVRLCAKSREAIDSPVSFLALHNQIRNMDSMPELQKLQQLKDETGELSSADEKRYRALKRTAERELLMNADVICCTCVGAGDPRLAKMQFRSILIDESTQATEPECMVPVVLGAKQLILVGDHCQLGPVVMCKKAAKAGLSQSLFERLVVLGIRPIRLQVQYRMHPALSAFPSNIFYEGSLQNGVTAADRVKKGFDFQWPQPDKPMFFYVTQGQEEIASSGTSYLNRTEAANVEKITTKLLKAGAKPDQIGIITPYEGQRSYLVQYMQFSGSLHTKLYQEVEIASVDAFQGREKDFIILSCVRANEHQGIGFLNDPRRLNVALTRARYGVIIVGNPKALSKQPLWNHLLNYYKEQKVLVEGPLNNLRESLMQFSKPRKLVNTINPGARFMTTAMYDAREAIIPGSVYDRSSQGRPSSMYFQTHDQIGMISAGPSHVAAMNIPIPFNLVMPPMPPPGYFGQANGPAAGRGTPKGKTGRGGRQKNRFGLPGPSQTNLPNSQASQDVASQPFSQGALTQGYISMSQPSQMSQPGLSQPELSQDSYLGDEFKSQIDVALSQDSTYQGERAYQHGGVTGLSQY
UniProt Q86U90: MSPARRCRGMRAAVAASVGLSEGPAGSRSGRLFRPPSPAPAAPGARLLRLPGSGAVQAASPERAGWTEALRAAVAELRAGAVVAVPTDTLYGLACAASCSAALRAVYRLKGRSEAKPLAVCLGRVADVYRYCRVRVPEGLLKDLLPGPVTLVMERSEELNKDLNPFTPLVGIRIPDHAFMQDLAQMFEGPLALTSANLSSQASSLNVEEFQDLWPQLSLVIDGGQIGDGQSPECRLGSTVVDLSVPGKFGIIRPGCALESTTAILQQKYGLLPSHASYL
UniProt Q96S82: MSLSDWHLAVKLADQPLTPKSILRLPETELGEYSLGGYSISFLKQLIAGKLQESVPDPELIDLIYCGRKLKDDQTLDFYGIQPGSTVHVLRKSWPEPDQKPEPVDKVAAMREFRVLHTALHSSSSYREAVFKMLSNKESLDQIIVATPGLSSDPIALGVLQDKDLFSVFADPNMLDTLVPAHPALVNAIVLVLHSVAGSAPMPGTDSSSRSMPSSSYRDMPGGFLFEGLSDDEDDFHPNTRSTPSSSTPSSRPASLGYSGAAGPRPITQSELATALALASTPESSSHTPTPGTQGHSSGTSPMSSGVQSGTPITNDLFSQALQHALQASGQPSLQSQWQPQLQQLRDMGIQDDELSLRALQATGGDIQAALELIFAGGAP
UniProt O95155, whole entry: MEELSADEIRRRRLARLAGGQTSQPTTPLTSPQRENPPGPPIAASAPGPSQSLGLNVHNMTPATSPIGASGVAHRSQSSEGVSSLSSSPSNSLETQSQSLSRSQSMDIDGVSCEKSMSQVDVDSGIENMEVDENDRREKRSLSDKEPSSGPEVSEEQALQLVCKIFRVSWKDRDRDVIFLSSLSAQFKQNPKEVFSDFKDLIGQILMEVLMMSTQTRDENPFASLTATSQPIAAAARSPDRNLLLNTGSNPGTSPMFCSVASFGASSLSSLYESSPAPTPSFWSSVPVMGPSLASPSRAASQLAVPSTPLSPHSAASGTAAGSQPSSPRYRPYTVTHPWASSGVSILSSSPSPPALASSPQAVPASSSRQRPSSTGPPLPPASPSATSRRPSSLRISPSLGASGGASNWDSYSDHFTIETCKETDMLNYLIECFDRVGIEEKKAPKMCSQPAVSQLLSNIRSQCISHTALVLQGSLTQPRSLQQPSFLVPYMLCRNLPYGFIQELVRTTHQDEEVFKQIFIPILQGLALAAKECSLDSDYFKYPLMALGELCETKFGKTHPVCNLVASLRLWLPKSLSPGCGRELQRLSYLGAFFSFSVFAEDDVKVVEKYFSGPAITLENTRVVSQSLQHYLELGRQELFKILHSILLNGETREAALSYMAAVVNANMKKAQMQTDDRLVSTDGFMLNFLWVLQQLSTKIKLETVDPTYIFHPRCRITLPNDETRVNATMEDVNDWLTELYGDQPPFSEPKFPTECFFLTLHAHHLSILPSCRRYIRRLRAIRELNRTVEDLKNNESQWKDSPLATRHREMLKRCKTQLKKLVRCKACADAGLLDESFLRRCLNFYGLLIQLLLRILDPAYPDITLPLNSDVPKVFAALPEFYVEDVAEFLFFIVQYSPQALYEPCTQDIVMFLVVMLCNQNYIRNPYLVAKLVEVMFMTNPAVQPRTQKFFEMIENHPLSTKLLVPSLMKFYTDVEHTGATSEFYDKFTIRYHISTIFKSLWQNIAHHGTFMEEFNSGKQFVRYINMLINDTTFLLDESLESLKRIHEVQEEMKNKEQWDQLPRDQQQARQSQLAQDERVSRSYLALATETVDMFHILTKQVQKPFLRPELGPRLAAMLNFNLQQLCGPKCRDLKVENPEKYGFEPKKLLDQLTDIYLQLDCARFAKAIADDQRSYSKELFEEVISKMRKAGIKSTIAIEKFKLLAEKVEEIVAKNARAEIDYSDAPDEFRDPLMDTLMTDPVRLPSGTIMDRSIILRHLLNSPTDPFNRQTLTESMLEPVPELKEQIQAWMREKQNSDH
UniProt O43298: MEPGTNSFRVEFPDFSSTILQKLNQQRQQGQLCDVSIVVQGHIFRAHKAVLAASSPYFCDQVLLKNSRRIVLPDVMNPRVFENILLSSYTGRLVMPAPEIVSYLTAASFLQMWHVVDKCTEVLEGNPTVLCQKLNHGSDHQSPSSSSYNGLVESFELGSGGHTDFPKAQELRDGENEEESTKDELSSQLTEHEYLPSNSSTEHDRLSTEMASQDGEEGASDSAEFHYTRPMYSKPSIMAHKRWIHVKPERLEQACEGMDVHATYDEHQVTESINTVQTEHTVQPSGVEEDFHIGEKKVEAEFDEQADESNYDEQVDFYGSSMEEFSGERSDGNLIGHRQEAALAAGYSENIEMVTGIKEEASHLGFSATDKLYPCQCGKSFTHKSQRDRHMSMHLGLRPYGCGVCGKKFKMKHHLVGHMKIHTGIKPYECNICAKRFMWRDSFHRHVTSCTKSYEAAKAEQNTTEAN

Compound in the assay: Nc1nc2c(ncn2[C@@H]2O[C@H](COP(=O)(O)OP(=O)(O)OP(=O)(O)O)[C@@H](O)[C@H]2O)c(=O)[nH]1
As to the kind of experiment: dose-dependent thermal stabilisation call (2D-TPP, DLPTP, 10% FDR) (binary (1 = stabilised)); higher = stabilised by the compound. The conditions noted are these: system: Jurkat gel-filtered lysate; concentration range 1-500 µM.

Some of the results follow.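 How the source made its calls: active = dose-dependent thermal stabilisation significant by F-test of dose-response against flat model at 10% FDR; inactive = not significant.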

Take USP38 (UniProt Q8NB14): the “dose-dependent thermal stabilisation call” value was inactive: 0.
As for YLPM1 (UniProt P49750), the “dose-dependent thermal stabilisation call” value is inactive: 0.
Regarding WDR13 (UniProt Q9H1Z4), the “dose-dependent thermal stabilisation call” value is inactive: 0.
Turning to VPS11 (UniProt Q9H270), the “dose-dependent thermal stabilisation call” value was inactive: 0.
On to ZBTB14 (UniProt O43829), for which the “dose-dependent thermal stabilisation call” value is inactive: 0.
For ZBTB1 (UniProt Q9Y2K1), the “dose-dependent thermal stabilisation call” value is inactive: 0.
As for VPS50 (UniProt Q96JG6), the “dose-dependent thermal stabilisation call” value is inactive: 0.
Turning to UTP3 (UniProt Q9NQZ2), the “dose-dependent thermal stabilisation call” value was inactive: 0.
With VTI1B (UniProt Q9UEU0), the “dose-dependent thermal stabilisation call” value is inactive: 0.
For XPNPEP1 (UniProt Q9NQW7), the “dose-dependent thermal stabilisation call” value is inactive: 0.
In the case of ZBTB18 (UniProt Q99592), the “dose-dependent thermal stabilisation call” value was inactive: 0.
The value for YOD1 (UniProt Q5VVQ6) was inactive: 0; that for WRAP73 (UniProt Q9P2S5) was inactive: 0; that for UBE2H (UniProt P62256) was inactive: 0.
On to UBL4A (UniProt P11441), for which the “dose-dependent thermal stabilisation call” value was inactive: 0.
For the target XPO5 (UniProt Q9HAV4), the “dose-dependent thermal stabilisation call” value is inactive: 0.
With UBE2I (UniProt P63279) the figure was inactive: 0.
With XRCC3 (UniProt O43542) the figure was active: 1.
For UBE2B (UniProt P63146), the “dose-dependent thermal stabilisation call” value is inactive: 0.
With UQCRH (UniProt P07919) the figure was inactive: 0; with UBE2V1 (UniProt Q13404), inactive: 0; with WBP11 (UniProt Q9Y2W2), inactive: 0.
For the target UBE2Z (UniProt Q9H832), the “dose-dependent thermal stabilisation call” value was inactive: 0.
On to ZBTB10 (UniProt Q96DT7), for which the “dose-dependent thermal stabilisation call” value is inactive: 0.
With WDR7 (UniProt Q9Y4E6), the “dose-dependent thermal stabilisation call” value is inactive: 0.
Consider UGP2 (UniProt Q16851), for which the “dose-dependent thermal stabilisation call” value was inactive: 0.
With XYLB (UniProt O75191), the “dose-dependent thermal stabilisation call” value was inactive: 0.
With USP8 (UniProt P40818) the figure was active: 1; with USP5 (UniProt P45974), inactive: 0; with VAV2 (UniProt P52735), active: 1.
XRN2 (UniProt Q9H0D6): the “dose-dependent thermal stabilisation call” value is inactive: 0.
As for USP24 (UniProt Q9UPU5), the “dose-dependent thermal stabilisation call” value was active: 1.
Turning to UVRAG (UniProt Q9P2Y5), the “dose-dependent thermal stabilisation call” value was inactive: 0.
With UBE2G1 (UniProt P62253) the figure was inactive: 0.
As for YDJC (UniProt A8MPS7), the “dose-dependent thermal stabilisation call” value was inactive: 0.
The value for ZBED8 (UniProt Q8IZ13) was inactive: 0.
For the target XPO4 (UniProt Q9C0E2), the “dose-dependent thermal stabilisation call” value was inactive: 0.
Turning to YWHAG (UniProt P61981), the “dose-dependent thermal stabilisation call” value is inactive: 0.
For VPS51 (UniProt Q9UID3), the “dose-dependent thermal stabilisation call” value is inactive: 0.
WDR5 (UniProt P61964): the “dose-dependent thermal stabilisation call” value was inactive: 0.
For UPF3B (UniProt Q9BZI7), the “dose-dependent thermal stabilisation call” value is inactive: 0.
Consider VPS29 (UniProt Q9UBQ0), for which the “dose-dependent thermal stabilisation call” value is inactive: 0.
The value for YKT6 (UniProt O15498) was inactive: 0.
The value for XRCC1 (UniProt P18887) was inactive: 0; that for YBX3 (UniProt P16989) was inactive: 0; that for ZC3H15 (UniProt Q8WU90) was inactive: 0.
Consider WDR26 (UniProt Q9H7D7), for which the “dose-dependent thermal stabilisation call” value is inactive: 0.
Regarding ZC3H8 (UniProt Q8N5P1), the “dose-dependent thermal stabilisation call” value is inactive: 0.
With VPS53 (UniProt Q5VIR6), the “dose-dependent thermal stabilisation call” value was active: 1.
As to UROS (UniProt P10746), the “dose-dependent thermal stabilisation call” value is inactive: 0.
For UCKL1 (UniProt Q9NWZ5), the “dose-dependent thermal stabilisation call” value is active: 1.
Turning to UPF1 (UniProt Q92900), the “dose-dependent thermal stabilisation call” value is active: 1.
As to UBE2Q1 (UniProt Q7Z7E8), the “dose-dependent thermal stabilisation call” value was inactive: 0.
For YRDC (UniProt Q86U90), the “dose-dependent thermal stabilisation call” value is inactive: 0.
The value for WDR44 (UniProt Q5JSH3) was inactive: 0; that for UBL7 (UniProt Q96S82) was inactive: 0; that for UBE4B (UniProt O95155) was inactive: 0.
As to UQCRFS1 (UniProt P47985), the “dose-dependent thermal stabilisation call” value is inactive: 0.
As to ZC3HAV1 (UniProt Q7Z2W4), the “dose-dependent thermal stabilisation call” value is inactive: 0.
With YWHAE (UniProt P62258), the “dose-dependent thermal stabilisation call” value is inactive: 0.
ZC3H14 (UniProt Q6PJT7): the “dose-dependent thermal stabilisation call” value is inactive: 0.
With WASHC3 (UniProt Q9Y3C0) the figure was inactive: 0; with ZBTB43 (UniProt O43298), inactive: 0; with UBXN4 (UniProt Q92575), inactive: 0.
As to USP3 (UniProt Q9Y6I4), the “dose-dependent thermal stabilisation call” value was inactive: 0.
WNK1 (UniProt Q9H4A3): the “dose-dependent thermal stabilisation call” value is inactive: 0.
Regarding USP7 (UniProt Q93009), the “dose-dependent thermal stabilisation call” value is inactive: 0.
For the target ZCCHC11 (UniProt Q5TAX3), the “dose-dependent thermal stabilisation call” value is inactive: 0.
Take UBL5 (UniProt Q9BZL1): the “dose-dependent thermal stabilisation call” value was inactive: 0.
With VTI1A (UniProt Q96AJ9) the figure was inactive: 0.
In the case of USP34 (UniProt Q70CQ2), the “dose-dependent thermal stabilisation call” value was inactive: 0.
In the case of UBE2R2 (UniProt Q712K3), the “dose-dependent thermal stabilisation call” value is active: 1.
